Reference: patent publication US20240322218A1, “DIAMONDOID SALTS AND RELATED COMPOSITIONS” (Wisconsin Alumni Research Foundation, priority 2021, published 2024)
Some results were stated once for a whole list of compounds, not compound by compound.

Assay: Cyclic voltammetry, cathodic stability / solvent protection
Conditions: in acetonitrile (Compound 4 at 25 mM), Ar and CO2

SMILES	solvent protection behavior up to potential
Cn1cc[n+](C23CC4C5CC6CC4C(C2)C(C6)C5C3)c1.[Br-] [Compound 3, 3-(diamantan-4-yl)-1-methylimidazolium bromide]	−8 to −10 V vs. Ag/AgNO3
[Br-].c1c[n+](C23CC4CC(CC(C4)C2)C3)cn1C12CC3CC(CC(C3)C1)C2 [Compound 4, 1,3-bis(adamantan-1-yl)imidazolium bromide]	−8 to −10 V vs. Ag/AgNO3
